Assay results: patent US20240150302A1, “6-METHYLURACIL DERIVATIVES WITH ANTICHOLINESTERASE ACTIVITY AND THEIR USE” (priority 2021, published 2024)
Counter-ions that a name gives are not always drawn.

Assays:
[1] = system: transgenic mice of the B6C3-Tg(APP695)85Dbo Tg(PSENI)85Dbo genotype; assay: Number of amyloid plaques in the cortex, Thioflavin S staining of brain sections; type: in vivo
Description: The line was purchased at The Jackson Laboratory (USA) and kept in the “Pushchino” nursery for laboratory animals Pushchino, Moscow Region). At the beginning of the research, the age of the transgenic mice was 9 months.
(§1) An equivalent amount of water (Water (Tg+)) was orally administered to control groups of transgenic mice.
Amyloid-beta deposits were evaluated after sacrifice on mouse brain sections (20 μm) using the Thioflavin S fluorescent dye and the Olympus BX51W1 fluorescence microscope, by the method described in the article [http://library.med.utah.edu/WebPath/histhtml/manuals/manuals.html].
The line was purchased at The Jackson Laboratory (USA) and kept in the “Pushchino” nursery for laboratory animals Pushchino, Moscow Region). At the beginning of the research, the age of the transgenic mice was 8 months.
as §1

[2] = system: transgenic mice with genotype B6C3-Tg(APP695)85Dbo Tg(PSENI)85Dbo; assay: "Rewarded alternation" test in a T-maze, genetic model of Alzheimer's disease; type: in vivo
Description: At the beginning of the research, the age of the transgenic mice was 9 months.
At the beginning of the research, the age of the transgenic mice was 8 months.

With `COc1cc2c(cc1OC)C(=O)C(CC1CCN(Cc3ccccc3)CC1)C2` (stereo not shown) [Donepezil hydrochloride] the “Number of amyloid plaques in the cortex” value ([1]; 1 mg/kg orally, Tg+ mice aged 9 months, 10x magnification (Example 7)) was 45 ± 2 per HPF, the “Number of amyloid plaques in the cortex” value ([1]; 5 mg/kg orally, Tg+ mice aged 8 months, 10x magnification (Example 8)) was 12 ± 1 per HPF and the “Effect on the number of amyloid plaques in the cortex” value ([1]; administered orally, Tg+ mice) was “did not significantly affect the number of amyloid plaques in the cortex”. The “The percentage of trained mice” value ([2]; 1 mg/kg orally, Tg+ mice aged 9 months (Example 5)) was 50%, the “The average percentage of choosing the right direction” value ([2]; 1 mg/kg orally, Tg+ mice aged 9 months, 14 days (Example 5)) was 66 ± 2% and the “The percentage of trained mice” value ([2]; 5 mg/kg orally, Tg+ mice aged 8 months (Example 6)) was 70%. The “The average percentage of choosing the right direction” value ([2]; 5 mg/kg orally, Tg+ mice aged 8 months, 14 days (Example 6)) was 69 ± 2%.
